The results in this text go back to paper doi:10.1101/2021.02.12.430913.

The chains behind the UniProt entries cited, without tags or fusion partners.
UniProt O09106: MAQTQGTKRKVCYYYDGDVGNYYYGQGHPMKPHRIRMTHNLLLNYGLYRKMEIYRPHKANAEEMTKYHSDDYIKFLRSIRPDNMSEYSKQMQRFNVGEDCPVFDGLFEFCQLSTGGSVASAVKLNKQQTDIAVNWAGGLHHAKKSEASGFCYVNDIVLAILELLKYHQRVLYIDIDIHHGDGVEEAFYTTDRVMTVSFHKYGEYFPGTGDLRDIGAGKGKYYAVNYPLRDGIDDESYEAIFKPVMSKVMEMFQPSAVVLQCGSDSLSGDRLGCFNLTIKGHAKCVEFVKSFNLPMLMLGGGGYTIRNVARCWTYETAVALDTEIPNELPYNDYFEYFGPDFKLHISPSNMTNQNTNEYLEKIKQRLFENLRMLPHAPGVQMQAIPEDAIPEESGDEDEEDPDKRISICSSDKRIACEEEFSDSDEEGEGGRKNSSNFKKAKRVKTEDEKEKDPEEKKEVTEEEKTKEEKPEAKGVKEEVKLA

No constants are given. Whether binding was seen depends on the method and setting. Binding seen in cells or lysates may run through a third protein. Binding can be weak; no strength is given.

The target of this assay is histone deacetylase 1 (HDAC1) (mouse (endogenous in testis)) (UniProt O09106). Briefly: co-IP.

Consider “potassium channel tetramerization domain containing 19 (KCTD19) (from UniProt Q562E2-2)”, for which the binding entry is recorded as “binds”.
